Results are given in words; binding and its absence hold for the method and conditions named. Binding seen in cells or lysates may run through a third protein. Some entries that bind do so weakly or less than the wild type.
Target: Shot-YFP (Drosophila) (UniProt A1Z9J1)
Experiment: co-IP; immunoprecipitation of the YFP-tagged protein (Shot-YFP or Katanin 80-YFP) from Drosophila ovary extracts; input and bound fractions blotted for Patronin

Amino acid sequences for entries named in this document (tags omitted).
UniProt A1Z9J1: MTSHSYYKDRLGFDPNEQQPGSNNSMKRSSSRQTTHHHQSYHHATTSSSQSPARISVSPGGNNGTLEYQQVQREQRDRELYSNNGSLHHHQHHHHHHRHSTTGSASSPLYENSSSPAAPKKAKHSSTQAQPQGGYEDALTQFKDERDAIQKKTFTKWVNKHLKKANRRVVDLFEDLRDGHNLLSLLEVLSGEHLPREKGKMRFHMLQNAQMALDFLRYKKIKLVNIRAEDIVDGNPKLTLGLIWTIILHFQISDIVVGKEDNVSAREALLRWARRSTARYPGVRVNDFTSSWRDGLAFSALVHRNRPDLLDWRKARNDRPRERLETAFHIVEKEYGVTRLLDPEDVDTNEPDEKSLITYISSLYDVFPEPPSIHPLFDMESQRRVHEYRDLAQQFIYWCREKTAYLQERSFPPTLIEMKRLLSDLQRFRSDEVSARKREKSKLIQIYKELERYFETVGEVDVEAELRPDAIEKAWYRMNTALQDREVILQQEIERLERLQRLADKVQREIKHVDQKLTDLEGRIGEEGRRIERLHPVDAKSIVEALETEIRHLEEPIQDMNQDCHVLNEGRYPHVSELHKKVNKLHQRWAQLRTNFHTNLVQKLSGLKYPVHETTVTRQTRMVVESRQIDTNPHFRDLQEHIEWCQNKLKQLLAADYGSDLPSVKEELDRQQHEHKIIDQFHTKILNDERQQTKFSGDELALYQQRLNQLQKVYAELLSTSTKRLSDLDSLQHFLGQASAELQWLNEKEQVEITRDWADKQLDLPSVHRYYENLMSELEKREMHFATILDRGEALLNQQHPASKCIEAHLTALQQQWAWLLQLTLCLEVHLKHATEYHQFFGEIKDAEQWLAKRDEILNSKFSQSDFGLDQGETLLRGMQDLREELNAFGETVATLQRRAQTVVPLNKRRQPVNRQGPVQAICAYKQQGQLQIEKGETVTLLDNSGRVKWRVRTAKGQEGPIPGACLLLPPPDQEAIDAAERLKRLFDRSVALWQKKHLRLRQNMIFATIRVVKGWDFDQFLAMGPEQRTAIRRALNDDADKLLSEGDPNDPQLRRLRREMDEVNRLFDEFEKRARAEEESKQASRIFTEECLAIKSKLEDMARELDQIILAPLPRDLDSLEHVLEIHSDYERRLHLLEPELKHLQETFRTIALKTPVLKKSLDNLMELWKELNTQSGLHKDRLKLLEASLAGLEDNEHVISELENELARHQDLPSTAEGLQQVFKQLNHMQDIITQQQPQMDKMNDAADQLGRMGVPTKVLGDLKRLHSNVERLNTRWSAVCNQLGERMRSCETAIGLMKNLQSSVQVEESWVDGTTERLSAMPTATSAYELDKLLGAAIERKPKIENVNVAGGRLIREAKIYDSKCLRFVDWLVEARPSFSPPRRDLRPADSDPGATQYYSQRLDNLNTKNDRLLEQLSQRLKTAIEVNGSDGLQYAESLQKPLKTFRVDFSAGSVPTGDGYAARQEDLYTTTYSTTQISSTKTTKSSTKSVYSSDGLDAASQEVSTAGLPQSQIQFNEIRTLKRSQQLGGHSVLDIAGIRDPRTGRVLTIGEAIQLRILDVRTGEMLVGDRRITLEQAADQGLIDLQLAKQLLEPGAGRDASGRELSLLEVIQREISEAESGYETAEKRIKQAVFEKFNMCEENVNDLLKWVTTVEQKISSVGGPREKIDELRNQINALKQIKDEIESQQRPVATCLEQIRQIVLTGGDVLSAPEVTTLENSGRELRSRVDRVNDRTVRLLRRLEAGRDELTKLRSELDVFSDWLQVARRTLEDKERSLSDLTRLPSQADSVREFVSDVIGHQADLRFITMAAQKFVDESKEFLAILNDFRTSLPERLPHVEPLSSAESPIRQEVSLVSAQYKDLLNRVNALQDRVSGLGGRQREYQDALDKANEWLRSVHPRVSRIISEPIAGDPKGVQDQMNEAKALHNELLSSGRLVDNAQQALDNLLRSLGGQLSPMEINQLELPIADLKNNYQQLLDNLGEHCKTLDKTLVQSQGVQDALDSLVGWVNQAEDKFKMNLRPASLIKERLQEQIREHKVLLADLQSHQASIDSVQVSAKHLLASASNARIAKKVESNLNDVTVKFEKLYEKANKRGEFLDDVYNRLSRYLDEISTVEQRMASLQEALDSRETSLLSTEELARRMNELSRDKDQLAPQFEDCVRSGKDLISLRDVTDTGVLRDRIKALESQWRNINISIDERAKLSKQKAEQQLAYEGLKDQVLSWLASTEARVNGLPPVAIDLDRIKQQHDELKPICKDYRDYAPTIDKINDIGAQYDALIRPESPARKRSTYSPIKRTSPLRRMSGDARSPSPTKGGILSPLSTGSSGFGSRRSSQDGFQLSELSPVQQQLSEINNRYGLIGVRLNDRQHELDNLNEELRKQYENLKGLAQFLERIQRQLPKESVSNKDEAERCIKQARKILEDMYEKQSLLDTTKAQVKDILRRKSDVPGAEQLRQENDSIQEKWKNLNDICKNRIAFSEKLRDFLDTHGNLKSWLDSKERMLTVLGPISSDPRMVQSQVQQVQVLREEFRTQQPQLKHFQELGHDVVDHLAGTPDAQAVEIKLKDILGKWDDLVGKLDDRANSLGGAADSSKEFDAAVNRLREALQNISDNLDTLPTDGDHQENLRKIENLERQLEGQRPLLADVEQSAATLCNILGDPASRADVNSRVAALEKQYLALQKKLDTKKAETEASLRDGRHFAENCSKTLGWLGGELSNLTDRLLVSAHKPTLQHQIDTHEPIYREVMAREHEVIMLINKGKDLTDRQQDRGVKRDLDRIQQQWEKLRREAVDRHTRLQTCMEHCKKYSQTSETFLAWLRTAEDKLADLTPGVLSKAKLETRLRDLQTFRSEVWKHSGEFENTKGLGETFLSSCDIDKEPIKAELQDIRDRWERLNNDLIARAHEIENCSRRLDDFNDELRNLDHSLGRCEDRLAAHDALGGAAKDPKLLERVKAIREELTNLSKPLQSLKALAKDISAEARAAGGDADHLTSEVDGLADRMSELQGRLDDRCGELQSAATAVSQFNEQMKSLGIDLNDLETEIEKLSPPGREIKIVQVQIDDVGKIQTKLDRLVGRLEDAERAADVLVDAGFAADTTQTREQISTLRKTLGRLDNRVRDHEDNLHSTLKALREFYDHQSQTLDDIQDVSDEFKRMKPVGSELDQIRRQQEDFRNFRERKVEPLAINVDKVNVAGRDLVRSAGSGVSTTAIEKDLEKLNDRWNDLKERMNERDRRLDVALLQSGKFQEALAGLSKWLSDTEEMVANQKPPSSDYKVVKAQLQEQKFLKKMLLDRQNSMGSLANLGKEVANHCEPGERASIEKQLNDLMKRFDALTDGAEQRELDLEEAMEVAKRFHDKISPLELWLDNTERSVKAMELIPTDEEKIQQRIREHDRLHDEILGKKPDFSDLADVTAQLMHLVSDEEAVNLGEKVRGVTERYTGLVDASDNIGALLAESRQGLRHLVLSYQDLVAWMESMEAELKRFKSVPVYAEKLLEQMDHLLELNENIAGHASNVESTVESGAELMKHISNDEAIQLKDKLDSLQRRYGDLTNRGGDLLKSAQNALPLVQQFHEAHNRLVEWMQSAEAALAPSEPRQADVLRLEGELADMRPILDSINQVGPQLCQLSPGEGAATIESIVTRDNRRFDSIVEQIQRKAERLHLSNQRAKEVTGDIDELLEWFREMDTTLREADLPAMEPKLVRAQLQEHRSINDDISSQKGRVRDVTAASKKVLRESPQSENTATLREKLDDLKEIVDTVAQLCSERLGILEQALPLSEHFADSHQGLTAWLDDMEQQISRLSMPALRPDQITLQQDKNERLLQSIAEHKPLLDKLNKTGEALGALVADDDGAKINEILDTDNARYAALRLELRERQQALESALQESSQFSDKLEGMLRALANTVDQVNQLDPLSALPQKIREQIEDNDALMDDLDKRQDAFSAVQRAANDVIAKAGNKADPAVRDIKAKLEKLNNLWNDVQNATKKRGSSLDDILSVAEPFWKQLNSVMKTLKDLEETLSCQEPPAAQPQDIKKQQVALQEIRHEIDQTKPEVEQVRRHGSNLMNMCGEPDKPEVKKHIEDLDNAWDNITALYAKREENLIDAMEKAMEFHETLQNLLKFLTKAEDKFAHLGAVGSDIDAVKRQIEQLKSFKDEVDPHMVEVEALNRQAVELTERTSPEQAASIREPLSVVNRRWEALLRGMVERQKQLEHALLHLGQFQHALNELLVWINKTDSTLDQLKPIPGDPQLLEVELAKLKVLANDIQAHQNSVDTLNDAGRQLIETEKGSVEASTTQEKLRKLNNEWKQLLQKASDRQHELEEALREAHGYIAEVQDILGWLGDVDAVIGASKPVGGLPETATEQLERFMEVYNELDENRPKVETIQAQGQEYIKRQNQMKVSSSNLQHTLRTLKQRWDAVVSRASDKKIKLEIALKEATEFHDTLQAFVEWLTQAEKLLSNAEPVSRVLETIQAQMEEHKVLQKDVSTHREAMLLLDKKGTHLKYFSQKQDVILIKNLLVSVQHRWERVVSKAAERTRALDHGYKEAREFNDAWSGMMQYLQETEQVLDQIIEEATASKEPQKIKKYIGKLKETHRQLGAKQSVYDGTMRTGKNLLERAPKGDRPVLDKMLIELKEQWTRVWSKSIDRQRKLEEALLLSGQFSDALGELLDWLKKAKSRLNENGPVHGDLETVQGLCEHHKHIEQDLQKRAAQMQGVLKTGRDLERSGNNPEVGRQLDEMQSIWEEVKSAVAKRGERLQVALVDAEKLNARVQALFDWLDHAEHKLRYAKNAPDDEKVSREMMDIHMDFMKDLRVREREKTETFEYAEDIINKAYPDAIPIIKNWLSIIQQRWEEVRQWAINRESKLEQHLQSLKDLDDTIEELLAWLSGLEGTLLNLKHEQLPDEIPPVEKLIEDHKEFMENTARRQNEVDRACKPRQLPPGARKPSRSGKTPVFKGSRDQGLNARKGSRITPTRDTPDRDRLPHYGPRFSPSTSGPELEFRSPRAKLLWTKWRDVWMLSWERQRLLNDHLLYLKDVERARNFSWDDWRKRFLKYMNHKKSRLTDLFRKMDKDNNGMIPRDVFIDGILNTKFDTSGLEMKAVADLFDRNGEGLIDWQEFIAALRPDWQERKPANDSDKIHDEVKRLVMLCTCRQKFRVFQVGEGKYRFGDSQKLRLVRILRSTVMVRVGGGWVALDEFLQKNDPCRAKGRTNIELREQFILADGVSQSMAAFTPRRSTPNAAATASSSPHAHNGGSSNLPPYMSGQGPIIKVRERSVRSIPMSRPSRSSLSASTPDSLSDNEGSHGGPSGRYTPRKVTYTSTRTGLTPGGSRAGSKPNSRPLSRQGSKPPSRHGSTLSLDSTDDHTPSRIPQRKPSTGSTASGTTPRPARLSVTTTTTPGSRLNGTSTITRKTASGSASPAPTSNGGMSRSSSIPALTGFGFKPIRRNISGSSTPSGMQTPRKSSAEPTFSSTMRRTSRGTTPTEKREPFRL

binding: binds
Substance: Patronin (from UniProt A1ZAU8 1-1630)

Source: PMC4943857
